The subject of test [1] is P. aeruginosa PA14. Briefly: MIC by broth microdilution, P. aeruginosa PA14. In kind it is cell-based. Particulars: Pseudomonas aeruginosa. Here is the method: (§1) Methods—Determination of MICs: MICs for S. aureus, E. faecium, E. coli, P aeruginosa, A. baumannii, K. pneumoniae were determined using broth microdilution in accordance with CLSI methods (Wiegand, I.; Hilpert, K.; Hancock, R. E. W. Agar and Broth Dilution Methods to Determine the Minimal Inhibitory Concentration (MIC) of Antimicrobial Substances. Nat. Protoc. 2008, 3, 163-175). One day prior to each MIC experiment, bacterial strains were streaked for single colonies on TSA plates from frozen glycerol stocks stored at −80° C. Three to five colonies from each plate were harvested with a disposable inoculating loop and resuspended in 500 μL of PBS to create a bacterial suspension. Alternatively, a single colony of the appropriate bacterial strain was added to 4 mL TSB for overnight growth at 37° C. with 200 rpm shaking to create a stationary phase bacterial suspension. The suspension was diluted in PBS to an OD600 of 0.1 (˜[…] CFU/ml), and the OD 0.1 suspension was diluted 1:100 in Mueller Hinton broth (MHB, Difco 257530) just prior to inoculating the 96-well polypropylene treatment plate (Costar 3879). […] The MIC was read as the lowest treatment concentration where no bacterial growth occurred, as determined by OD600 measurements on a microplate reader. […]

Test [2] deals with E. faecium ATCC 51559 (VRE). Briefly: MIC by broth microdilution, E. faecium ATCC 51559 (VRE). In kind it is cell-based. As to conditions: Enterococcus faecium. Here is the method:
as §1
On the technique in general: In broth dilution the organism is exposed to a series of concentrations in liquid medium.

SMILES strings stand for the structures. In brackets after ≈: the same amount, converted by molar mass. Bounds are passed on as bounds.

The term MIC denotes the lowest concentration found to suppress growth. For `CN[C@H](CC(C)C)C(=O)N[C@H]1C(=O)N[C@@H](CC(N)=O)C(=O)N[C@H]2C(=O)N[C@H]3C(=O)N[C@H](C(=O)N[C@H](C(=O)O)c4cc(O)cc(O)c4-c4cc3ccc4O)[C@H](O)c3ccc(c(Cl)c3)Oc3cc2cc(c3O[C@@H]2O[C@H](CO)[C@@H](O)[C@H](O)[C@H]2O[C@H]2C[C@](C)(N)[C@H](O)[C@H](C)O2)Oc2ccc(cc2Cl)[C@H]1O` [Vancomycin], the values for the MIC in test [1] and in test [2] were greater than 256 µM and 512 µM (≈ 742 µg/mL), respectively.
